Assay results taken from PMC7368280.

Molecular target: T1, GFP-CLF (35S:GFP-CLF in clf-50) (Arabidopsis), P93831
T1 chain: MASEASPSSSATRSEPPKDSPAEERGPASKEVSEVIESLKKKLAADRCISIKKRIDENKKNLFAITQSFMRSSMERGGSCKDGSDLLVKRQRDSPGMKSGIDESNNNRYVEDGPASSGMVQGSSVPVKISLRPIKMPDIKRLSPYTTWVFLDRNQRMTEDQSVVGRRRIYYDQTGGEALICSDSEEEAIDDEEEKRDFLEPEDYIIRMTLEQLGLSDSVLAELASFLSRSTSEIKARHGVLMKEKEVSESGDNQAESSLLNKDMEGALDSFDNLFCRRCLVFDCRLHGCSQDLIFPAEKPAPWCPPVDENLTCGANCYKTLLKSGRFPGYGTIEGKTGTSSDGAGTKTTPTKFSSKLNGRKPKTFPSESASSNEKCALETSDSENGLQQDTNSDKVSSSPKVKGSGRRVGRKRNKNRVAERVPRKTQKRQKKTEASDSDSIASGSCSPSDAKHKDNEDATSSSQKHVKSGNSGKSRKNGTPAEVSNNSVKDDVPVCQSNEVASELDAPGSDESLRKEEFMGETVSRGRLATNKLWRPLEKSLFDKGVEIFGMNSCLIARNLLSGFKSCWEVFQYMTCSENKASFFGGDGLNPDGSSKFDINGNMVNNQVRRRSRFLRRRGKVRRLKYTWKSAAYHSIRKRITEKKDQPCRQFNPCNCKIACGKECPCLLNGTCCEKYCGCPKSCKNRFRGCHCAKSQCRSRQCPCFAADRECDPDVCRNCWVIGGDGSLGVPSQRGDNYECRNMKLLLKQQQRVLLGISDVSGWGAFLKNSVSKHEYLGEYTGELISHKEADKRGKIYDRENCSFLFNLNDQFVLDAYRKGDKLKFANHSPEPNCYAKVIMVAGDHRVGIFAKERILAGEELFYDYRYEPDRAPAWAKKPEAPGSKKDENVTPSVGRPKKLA
Assay: affinity purification with mass spectrometry; coIP-MS with GFP-tagged baits from Arabidopsis plants (gICU11-GFP icu11-3; 35S:GFP-CLF clf-50; gSWN-GFP), control 35S::GFP; two independent experiments; procedure in SI Appendix
Details: remark: other sources report otherwise

B1: SWINGER (SWN), endogenous, Q9ZSM8 1-856 (protein)
chain: MVTDDSNSSGRIKSHVDDDDDGEEEEDRLEGLENRLSELKRKIQGERVRSIKEKFEANRKKVDAHVSPFSSAASSRATAEDNGNSNMLSSRMRMPLCKLNGFSHGVGDRDYVPTKDVISASVKLPIAERIPPYTTWIFLDRNQRMAEDQSVVGRRQIYYEQHGGETLICSDSEEEPEPEEEKREFSEGEDSIIWLIGQEYGMGEEVQDALCQLLSVDASDILERYNELKLKDKQNTEEFSNSGFKLGISLEKGLGAALDSFDNLFCRRCLVFDCRLHGCSQPLISASEKQPYWSDYEGDRKPCSKHCYLQLKAVREVPETCSNFASKAEEKASEEECSKAVSSDVPHAAASGVSLQVEKTDIGIKNVDSSSGVEQEHGIRGKREVPILKDSNDLPNLSNKKQKTAASDTKMSFVNSVPSLDQALDSTKGDQGGTTDNKVNRDSEADAKEVGEPIPDNSVHDGGSSICQPHHGSGNGAIIIAEMSETSRPSTEWNPIEKDLYLKGVEIFGRNSCLIARNLLSGLKTCLDVSNYMRENEVSVFRRSSTPNLLLDDGRTDPGNDNDEVPPRTRLFRRKGKTRKLKYSTKSAGHPSVWKRIAGGKNQSCKQYTPCGCLSMCGKDCPCLTNETCCEKYCGCSKSCKNRFRGCHCAKSQCRSRQCPCFAAGRECDPDVCRNCWVSCGDGSLGEAPRRGEGQCGNMRLLLRQQQRILLGKSDVAGWGAFLKNSVSKNEYLGEYTGELISHHEADKRGKIYDRANSSFLFDLNDQYVLDAQRKGDKLKFANHSAKPNCYAKVMFVAGDHRVGIFANERIEASEELFYDYRYGPDQAPVWARKPEGSKKDDSAITHRRARKHQSH
B1 was tested, and the binding was “binds”.

No constants are given. Whether binding was seen depends on the method and setting. In cells and extracts the contact can be indirect. A yes stands for co-enrichment or nearness to the bait. Other partners may have been found. Where a sequence is shown, tags or fusion partners need not be part of it.
